Results of single-concentration screens

Protein sequences, listed by entry. Tags and fused reporters are not part of them. Residues count along the entry.
UniProt Q8IDJ8, 1-583: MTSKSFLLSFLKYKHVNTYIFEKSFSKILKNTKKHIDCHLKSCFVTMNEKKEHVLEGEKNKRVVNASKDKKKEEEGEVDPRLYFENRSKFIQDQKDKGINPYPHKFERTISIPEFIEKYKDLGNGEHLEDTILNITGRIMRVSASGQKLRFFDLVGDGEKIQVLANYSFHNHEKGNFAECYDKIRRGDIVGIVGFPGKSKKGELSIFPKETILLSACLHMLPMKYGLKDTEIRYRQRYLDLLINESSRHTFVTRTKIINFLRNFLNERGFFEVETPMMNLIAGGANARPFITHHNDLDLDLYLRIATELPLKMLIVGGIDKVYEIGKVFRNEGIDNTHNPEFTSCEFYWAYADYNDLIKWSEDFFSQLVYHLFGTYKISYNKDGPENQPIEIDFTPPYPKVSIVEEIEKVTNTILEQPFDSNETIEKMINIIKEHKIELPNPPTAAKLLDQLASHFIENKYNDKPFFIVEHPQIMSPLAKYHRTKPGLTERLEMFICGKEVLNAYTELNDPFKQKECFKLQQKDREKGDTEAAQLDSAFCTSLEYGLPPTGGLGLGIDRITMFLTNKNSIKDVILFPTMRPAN
UniProt Q4DA54, 1-478: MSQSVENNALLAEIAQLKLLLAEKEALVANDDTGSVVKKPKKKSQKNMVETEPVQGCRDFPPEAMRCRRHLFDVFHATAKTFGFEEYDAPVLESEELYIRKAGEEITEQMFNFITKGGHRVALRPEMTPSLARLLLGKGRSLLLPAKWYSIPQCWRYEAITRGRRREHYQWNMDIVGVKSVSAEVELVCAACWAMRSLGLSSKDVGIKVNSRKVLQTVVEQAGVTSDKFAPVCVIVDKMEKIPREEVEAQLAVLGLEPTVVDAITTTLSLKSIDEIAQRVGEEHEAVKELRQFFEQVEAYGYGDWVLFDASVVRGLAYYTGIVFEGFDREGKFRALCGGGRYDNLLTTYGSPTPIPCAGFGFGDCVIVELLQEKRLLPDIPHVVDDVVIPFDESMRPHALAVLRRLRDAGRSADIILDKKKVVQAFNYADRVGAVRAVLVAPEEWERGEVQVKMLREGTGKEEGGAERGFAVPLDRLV
UniProt I6X8D2, whole entry: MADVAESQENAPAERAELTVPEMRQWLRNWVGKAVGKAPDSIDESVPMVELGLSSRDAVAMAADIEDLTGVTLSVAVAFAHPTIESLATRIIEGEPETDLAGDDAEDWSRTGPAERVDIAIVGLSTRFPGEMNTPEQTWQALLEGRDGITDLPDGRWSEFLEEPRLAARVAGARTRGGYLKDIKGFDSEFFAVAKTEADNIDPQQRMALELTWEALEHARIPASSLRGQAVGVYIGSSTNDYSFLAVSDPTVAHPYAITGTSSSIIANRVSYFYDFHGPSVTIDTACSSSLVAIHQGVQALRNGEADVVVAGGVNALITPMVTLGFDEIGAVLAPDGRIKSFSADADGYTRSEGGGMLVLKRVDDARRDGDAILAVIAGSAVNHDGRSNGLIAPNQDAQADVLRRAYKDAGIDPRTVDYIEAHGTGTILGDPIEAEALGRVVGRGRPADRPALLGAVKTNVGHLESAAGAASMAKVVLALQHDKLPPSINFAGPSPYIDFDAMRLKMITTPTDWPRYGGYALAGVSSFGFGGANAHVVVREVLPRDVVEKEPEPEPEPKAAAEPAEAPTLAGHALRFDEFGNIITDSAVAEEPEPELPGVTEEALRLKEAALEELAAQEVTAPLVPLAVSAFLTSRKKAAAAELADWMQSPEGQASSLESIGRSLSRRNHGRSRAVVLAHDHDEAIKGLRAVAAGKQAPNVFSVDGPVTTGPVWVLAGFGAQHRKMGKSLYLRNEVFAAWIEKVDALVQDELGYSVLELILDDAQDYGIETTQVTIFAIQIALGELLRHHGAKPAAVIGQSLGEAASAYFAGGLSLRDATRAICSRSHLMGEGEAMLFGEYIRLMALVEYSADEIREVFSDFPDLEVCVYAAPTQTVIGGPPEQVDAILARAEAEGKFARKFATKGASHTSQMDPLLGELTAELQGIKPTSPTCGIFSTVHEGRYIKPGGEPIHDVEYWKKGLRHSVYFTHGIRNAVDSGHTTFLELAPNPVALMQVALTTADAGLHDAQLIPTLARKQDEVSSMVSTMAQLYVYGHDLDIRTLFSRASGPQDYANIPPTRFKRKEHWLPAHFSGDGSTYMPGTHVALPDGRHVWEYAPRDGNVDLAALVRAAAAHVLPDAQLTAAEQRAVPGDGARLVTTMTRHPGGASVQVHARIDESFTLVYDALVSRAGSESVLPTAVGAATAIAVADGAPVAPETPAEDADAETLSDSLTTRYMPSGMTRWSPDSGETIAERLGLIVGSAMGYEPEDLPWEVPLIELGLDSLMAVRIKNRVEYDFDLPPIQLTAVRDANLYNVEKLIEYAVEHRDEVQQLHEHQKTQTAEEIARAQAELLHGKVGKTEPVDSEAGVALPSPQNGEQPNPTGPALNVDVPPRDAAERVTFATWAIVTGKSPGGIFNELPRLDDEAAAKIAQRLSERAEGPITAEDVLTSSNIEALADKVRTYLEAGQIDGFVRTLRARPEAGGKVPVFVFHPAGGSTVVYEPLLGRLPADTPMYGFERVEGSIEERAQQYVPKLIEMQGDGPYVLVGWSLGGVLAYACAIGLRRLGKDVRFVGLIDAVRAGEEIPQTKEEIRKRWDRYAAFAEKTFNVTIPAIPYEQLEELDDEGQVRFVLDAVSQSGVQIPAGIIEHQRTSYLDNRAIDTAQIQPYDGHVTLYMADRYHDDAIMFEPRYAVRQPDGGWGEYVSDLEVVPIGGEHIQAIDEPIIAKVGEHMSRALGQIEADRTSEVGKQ

Results are given as percent effect. How 0% and 100% were set is not recorded. Most values in the screen are low, and negative values occur. This is an unselected part of the compounds tested. Two or more numbers in one place are separate tests of the same structure; such repeats can differ widely. A dash means the value is not listed here; it may have been measured.

PfKRS1: 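Lysine-tRNA ligase, Plasmodium falciparum 3D7 (UniProt Q8IDJ8). Enzyme assay of the cytosolic lysyl-tRNA synthetase in 384-well plates, read by luminescence. Compounds at 30 µM. Higher reads as stronger inhibition, judged from the few compounds that gave an IC50. Of about 69,000 compounds tested this way, about 49 (0.071%) reached 50% or more in at least one test.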
TcHisRS: 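Enzyme assay of histidyl-tRNA synthetase; the read-out is not stated. Target: Histidine-tRNA ligase, Trypanosoma cruzi CL Brener (UniProt Q4DA54). Tested at 30 µM. Higher reads as stronger inhibition (inferred: compounds with an IC50 in retests scored well above the rest). Size under these conditions: about 69,000 compounds, about 31 of them at 50% or above in at least one test.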
Leishmania in macrophages: 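Cell assay of Leishmania donovani living inside macrophages; the read-out is not stated. Tested at 30 µM. The record gives no direction; compounds that gave an IC50 in retests scored well above the rest, so higher reads as stronger inhibition. Of about 69,000 compounds tested this way, about 1,000 (1.5%) reached 50% or more in at least one test.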
Pks13 thioesterase: 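Polyketide synthase Pks13, Mycobacterium tuberculosis (UniProt I6X8D2). Enzyme assay of the thioesterase domain of polyketide synthase 13; the read-out is not stated. Compounds at 30 µM. The record gives no direction; the compounds picked for IC50 retests had high values, so higher reads as stronger inhibition. About 67,000 compounds were tested under these conditions; 0.46% (about 300) showed 50% or more at least once.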

| # | SMILES | PfKRS1 | TcHisRS | Leishmania in macrophages | Pks13 thioesterase |
|---|---|---|---|---|---|
| 1 | `F[C@@H]1CN(Cc2ccccc2)C[C@@H]1OCc1nc2ccccc2[nH]1` | 7.059% | 2.488% | 22.69% | -17.67% |
| 2 | `[H][C@@]12OCCN(C(=O)c3ccnnc3)[C@@]1([H])CC[C@@H]2OCc1cccnc1` | - | - | 7.487% | - |
| 3 | `CN1CC(c2ccccc2)C2(CCN(C(=O)c3ccc[nH]3)CC2)C1=O` (centres undefined) | 3.008% | 5.376% | -43.23% & -5.264% | -4.241% |
| 4 | `Cn1ccnc1C1CCN(S(=O)(=O)c2ccc3[nH]c(=O)[nH]c3c2)CC1` | 5.732% | -5.747% | -3.243% | -8.074% |
| 5 | `Cn1cc(CN2C[C@@H]3CCCO[C@@H]3[C@H](N3CCCC3=O)C2)cn1` | 0.9387% | 4.301% | - | 14.53% |
| 6 | `Cc1nc(CN2CCCC(Cn3cc(CCO)nn3)C2)c2ccccn12` (centres undefined) | 1.714% | 6.122% | -10.97% | -7.522% |
| 7 | `Cn1cc(NC(=O)Nc2ccc3c(c2)OCO3)cn1` | 11.14% | 23.56% | 4.295% | 20.87% |
| 8 | `O=C(CC1CCCC1)NCCn1ccc(-c2ccncc2)n1` | -4.066% | 3.261% | 8.042% | -7.058% |
| 9 | `CN(Cc1ccc2c(c1)OCCO2)c1ncc(S(N)(=O)=O)s1` | 3.811% | 6.173% | 36.22% | -21.24% |
| 10 | `Cc1nn2cc(CCNC(=O)c3cc(C(C)C)no3)nc2s1` | 1.664% | 0.5525% | -3.357% | 6.717% |
| 11 | `COC(=O)c1ccc(NC(=O)CCNCc2ccco2)cc1` | 6.576% | -3.571% | 0.5042% | -14.4% |
| 12 | `Cc1cccc2c1ccn2CC(=O)O` | -2.976% | 3.097% | 22.3% | -4.545% |
| 13 | `Cc1cc(C)n(C2CN(CC(=O)N(C)Cc3ccc(C)o3)C2)n1` | 2.565% | 3.261% | -15.75% | -35.64% |
| 14 | `O=C(C1CCOC1)N1CC[C@@H](O)[C@@H]1Cc1ccccc1` (some centres undefined) | 0.39% | -39.1% | 17.4% | -1.925% |
| 15 | `NC(=O)CN1CCCC(C(=O)N2CCC(Oc3ncccn3)CC2)C1` (centres undefined) | 0.999% | 5.422% | 28.17% | -5.156% |
| 16 | `Cc1cccnc1CNCC1(O)CCCN(CC2CCCCC2)C1=O` (centres undefined) | 3.833% | 0.8264% | 6.975% | -10.97% |
| 17 | `CC(=O)c1cccc(NC(=O)CN2CCCCC2C2OCCO2)c1` (centres undefined) | 11.36% | 0.5348% | 15.85% | -23.82% |
| 18 | `O=C1CC[C@H]2[C@H](CCN2C(=O)C2CCCO2)N1CCN1CCCC1` (some centres undefined) | 1.388% | -6.011% | - | -36.62% |
| 19 | `O=C(Nc1nc(-c2ccccc2)ns1)N1CCC(CO)CC1` | 5.876% | 2.41% | 14.95% & 11.94% | - |
| 20 | `Cn1cc(CN2CCCC23CCN(C(=O)c2ccccc2)CC3)cn1.O=C(O)C(F)(F)F` | - | - | 33.86% | - |
| 21 | `O=S1(=O)CCC(n2cc(CNc3ccccc3Br)cn2)C1` (centres undefined) | -4.688% | 5.195% | -4.244% | 20.98% |
| 22 | `N#Cc1cc(NS(=O)(=O)c2ccc(C(=O)O)cc2F)ccc1F` | 6.382% | 5.263% | 1.081% | 4.84% |
| 23 | `O=C(CN(Cc1cccs1)c1ccc(F)cc1)NC1CCOCC1` | 5.147% | 5.978% | 15.67% | -34.17% |
| 24 | `N#Cc1ccc(S(=O)(=O)Nc2ccccc2C#N)cn1` | -0.7989% | 2.762% | 21.95% | 9.547% |
| 25 | `CCOc1ccc(CC(=O)N2CCN(c3nccn3C)CC2)cc1.Cl` | - | - | 11.66% | - |
| 26 | `O=C(C1CC=CC1)N1CC[C@@H]2O[C@@H](COCC3CCOCC3)CC[C@@H]21` | 4.552% | 7.843% | - | 15.73% |
| 27 | `CN(C)CCOCC1CN(CCN(C)C)Cc2ccnn2C1` (centres undefined) | 5.213% | 5.785% | 31.99% | 9.706% |
| 28 | `CN1CCC2(CCN(CC3CC3)CC2)C1=O.O=C(O)C(F)(F)F` | - | - | 21.25% & 19.75% | - |
| 29 | `CN(Cc1ccc(CCC(C)(C)O)cc1)CC1(CO)CC1` | 9.245% | 3.004% | 14.26% | -13.27% |
| 30 | `[H][C@]12CN(Cc3ccc(OC)cc3)C(=O)[C@@]1([H])CN(c1ncc(CC)cn1)C2` | - | - | -79.1% | - |
| 31 | `CCn1cc(CN2CCCN(C(=O)c3sc(C)nc3C)CC2)cn1` | 0.9208% | 2.857% | 18.06% | -20.35% |
| 32 | `CC(NC(=O)NCc1cccc(N2CCCC2=O)c1)c1ccccc1` (centres undefined) | 3.546% | -1.887% | 3.921% | -17.24% |
| 33 | `Cc1cccc(NC(=O)c2cccc(OCc3nnnn3C)c2)n1` | -2.376% | 1.98% | -12.09% | -4.098% |
| 34 | `COCCN(CC1CC1)c1nc(CCN)nc2ccccc12` | -3.998% | 11% | 14.22% | -8.337% |
| 35 | `[H][C@@]12CNC(=O)N1CCN(Cc1ccccn1)C2` | - | - | 5.689% | - |
| 36 | `CCc1ccc(S(=O)(=O)NCCOc2ccc3nnc(C)n3n2)s1` | -2.298% | 13.94% | 19.82% | 10.73% |
| 37 | `O=C(c1ccc(OCC2CC2)nc1)N1CCCC(n2ccnc2)C1` (centres undefined) | -1.289% | 2.29% | 39.88% | -41.83% |
| 38 | `Cn1ccc2ccc(C(=O)NC3CCOC(C)(C)C3)cc21` (centres undefined) | 6.086% | 11.46% | 6.093% | 1.954% |
| 39 | `CC(C)c1nc(-c2cc(C(=O)NCCCO)c3ccccn23)cs1` | 1.532% | 2.674% | 30% | -26.38% |
| 40 | `CCC(=O)N1Cc2nnc(C3CCOCC3)n2C(Cc2c[nH]cn2)C1` (centres undefined) | 3.296% | 4.372% | 39.38% | -20.38% |
| 41 | `O=C(c1ccccc1C(F)(F)F)N1C[C@@H](CN2CCOCC2)[C@@H](CO)C1` | 3.885% | -1.508% | -1.834% | -6.791% |
| 42 | `CS(=O)(=O)N1CCC2(CC1)CC(NCc1ccccn1)c1ccccc12` (centres undefined) | 1.504% | -1.508% | 27.64% | -5.636% |
| 43 | `O=C(NCC1CC2(CO1)CN(Cc1cccs1)C2)C1CCC1` (centres undefined) | -0.6294% | -4.42% | - | -40.74% |
| 44 | `O=C(O)C(F)(F)F.O=C(O)C(F)(F)F.[H][C@@]12CCN(Cc3ccccn3)C[C@]1([H])OCCN(c1ccccc1)C2=O` | - | - | 28.34% | - |
| 45 | `Cc1nc(C)n(CCC(=O)NCC2CCCOC2)n1` (centres undefined) | 3.247% | 3.955% | -16.22% | 10.36% |
| 46 | `CCc1nn2c(=N)c(C#N)n[nH]c2c1-c1ccc(OC)cc1` | 8.695% | 1.98% | -11.15% | 11.1% |
| 47 | `Cc1cc(=O)c2ccccc2n1CC1CCCN(C)C1` (centres undefined) | -2.573% | -0.6494% | 43.93% | -17.96% |
| 48 | `CNC(=O)c1cn(C)c(-c2nc3cc(NC(C)=O)ccc3n2C)c1OC` | -1.091% | -2.924% | 12.79% | -14.89% |
| 49 | `O=C(NCCc1ccncc1)c1cccc(S(=O)(=O)NC2CCOC2)c1` (centres undefined) | 5.357% | 5.6% | 22.97% | -4.475% |
| 50 | `O=C(c1ccc(S(=O)(=O)N2CCNCC2)cc1)N1CCCC(O)C1` (centres undefined) | 3.53% | -3.093% | 3.196% | -13.29% |
| 51 | `Cl.Cl.O[C@@H]1C[C@@](CNCC2CC2)(COc2cccnc2)C[C@@H]1O` | - | - | 22.76% | - |
| 52 | `Cn1ccnc1CNC[C@H]1Cn2cc(-c3ccccc3)nc2CO1` | 1.942% | 7.609% | 9.597% | -22.64% |
| 53 | `O=C(C1CC1)N1CCC2(CC1)OCCO2` | 0.7313% | 4.348% | 8.534% | -13.85% |

The first 7 entries again:

* F[C@@H]1CN(Cc2ccccc2)C[C@@H]1OCc1nc2ccccc2[nH]1 | PfKRS1: 7.059%; TcHisRS: 2.488%; Leishmania in macrophages: 22.69%; Pks13 thioesterase: -17.67%
* [H][C@@]12OCCN(C(=O)c3ccnnc3)[C@@]1([H])CC[C@@H]2OCc1cccnc1 | Leishmania in macrophages: 7.487%
* CN1CC(c2ccccc2)C2(CCN(C(=O)c3ccc[nH]3)CC2)C1=O (centres undefined) | PfKRS1: 3.008%; TcHisRS: 5.376%; Leishmania in macrophages: -43.23% & -5.264%; Pks13 thioesterase: -4.241%
* Cn1ccnc1C1CCN(S(=O)(=O)c2ccc3[nH]c(=O)[nH]c3c2)CC1 | PfKRS1: 5.732%; TcHisRS: -5.747%; Leishmania in macrophages: -3.243%; Pks13 thioesterase: -8.074%
* Cn1cc(CN2C[C@@H]3CCCO[C@@H]3[C@H](N3CCCC3=O)C2)cn1 | PfKRS1: 0.9387%; TcHisRS: 4.301%; Pks13 thioesterase: 14.53%
* Cc1nc(CN2CCCC(Cn3cc(CCO)nn3)C2)c2ccccn12 (centres undefined) | PfKRS1: 1.714%; TcHisRS: 6.122%; Leishmania in macrophages: -10.97%; Pks13 thioesterase: -7.522%
* Cn1cc(NC(=O)Nc2ccc3c(c2)OCO3)cn1 | PfKRS1: 11.14%; TcHisRS: 23.56%; Leishmania in macrophages: 4.295%; Pks13 thioesterase: 20.87%

From ChEMBL document CHEMBL3988442, “University of Dundee, Small-Polar-MMV Screening Library” (2021).